This is one part of the list.
Compound: C1=CC=C(C=C1)C2=NC(=C(N2)C3=CC=NC=C3)C4=CC(=C(C=C4)Cl)O
Experiment: log2 fold change, soluble protein after heating vs DMSO (PISA); higher = thermal stabilisation; K562 lysate, 10 uM; active = over 0.2 and 3.5 SD of the protein, either way, in both replicates (recomputed)
Method in brief: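 Log-two fold change in thermal stability relative to solvent controls is reported from duplicates. For each sample, crude K562 extract from dounce-homogenised pellets in PBS pH 7.4 with 1 mM MgCl2, at 1 mg/mL protein, was treated with 10 μM compound for 30 min. Aliquots heated for 3 min across 48°C-58°C were pooled, brought to 0.5% NP-40 at 4°C and cleared at 21,000xg for 90 min. The supernatant was quantified by TMTpro 16plex LC-MS/MS with channel sums equalised.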

Protein sequences, listed by entry. Tags and fused reporters are not part of them. Lines headed by an entry give the natural chain unless they say otherwise; changes in a name come on top.
UniProt Q8TBB5: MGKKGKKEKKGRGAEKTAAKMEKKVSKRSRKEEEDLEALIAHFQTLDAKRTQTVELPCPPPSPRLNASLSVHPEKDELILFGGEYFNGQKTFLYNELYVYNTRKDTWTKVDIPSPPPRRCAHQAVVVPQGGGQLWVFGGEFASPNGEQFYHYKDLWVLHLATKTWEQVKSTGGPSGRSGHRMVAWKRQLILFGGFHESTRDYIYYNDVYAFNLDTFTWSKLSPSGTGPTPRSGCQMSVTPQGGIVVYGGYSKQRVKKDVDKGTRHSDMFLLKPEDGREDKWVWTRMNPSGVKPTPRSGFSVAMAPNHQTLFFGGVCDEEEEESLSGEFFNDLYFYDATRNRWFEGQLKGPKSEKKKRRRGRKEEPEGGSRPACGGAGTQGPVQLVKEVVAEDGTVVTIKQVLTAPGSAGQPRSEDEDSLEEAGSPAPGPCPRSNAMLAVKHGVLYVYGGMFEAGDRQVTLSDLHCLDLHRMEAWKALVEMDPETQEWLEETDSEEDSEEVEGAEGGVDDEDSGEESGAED
UniProt O60333: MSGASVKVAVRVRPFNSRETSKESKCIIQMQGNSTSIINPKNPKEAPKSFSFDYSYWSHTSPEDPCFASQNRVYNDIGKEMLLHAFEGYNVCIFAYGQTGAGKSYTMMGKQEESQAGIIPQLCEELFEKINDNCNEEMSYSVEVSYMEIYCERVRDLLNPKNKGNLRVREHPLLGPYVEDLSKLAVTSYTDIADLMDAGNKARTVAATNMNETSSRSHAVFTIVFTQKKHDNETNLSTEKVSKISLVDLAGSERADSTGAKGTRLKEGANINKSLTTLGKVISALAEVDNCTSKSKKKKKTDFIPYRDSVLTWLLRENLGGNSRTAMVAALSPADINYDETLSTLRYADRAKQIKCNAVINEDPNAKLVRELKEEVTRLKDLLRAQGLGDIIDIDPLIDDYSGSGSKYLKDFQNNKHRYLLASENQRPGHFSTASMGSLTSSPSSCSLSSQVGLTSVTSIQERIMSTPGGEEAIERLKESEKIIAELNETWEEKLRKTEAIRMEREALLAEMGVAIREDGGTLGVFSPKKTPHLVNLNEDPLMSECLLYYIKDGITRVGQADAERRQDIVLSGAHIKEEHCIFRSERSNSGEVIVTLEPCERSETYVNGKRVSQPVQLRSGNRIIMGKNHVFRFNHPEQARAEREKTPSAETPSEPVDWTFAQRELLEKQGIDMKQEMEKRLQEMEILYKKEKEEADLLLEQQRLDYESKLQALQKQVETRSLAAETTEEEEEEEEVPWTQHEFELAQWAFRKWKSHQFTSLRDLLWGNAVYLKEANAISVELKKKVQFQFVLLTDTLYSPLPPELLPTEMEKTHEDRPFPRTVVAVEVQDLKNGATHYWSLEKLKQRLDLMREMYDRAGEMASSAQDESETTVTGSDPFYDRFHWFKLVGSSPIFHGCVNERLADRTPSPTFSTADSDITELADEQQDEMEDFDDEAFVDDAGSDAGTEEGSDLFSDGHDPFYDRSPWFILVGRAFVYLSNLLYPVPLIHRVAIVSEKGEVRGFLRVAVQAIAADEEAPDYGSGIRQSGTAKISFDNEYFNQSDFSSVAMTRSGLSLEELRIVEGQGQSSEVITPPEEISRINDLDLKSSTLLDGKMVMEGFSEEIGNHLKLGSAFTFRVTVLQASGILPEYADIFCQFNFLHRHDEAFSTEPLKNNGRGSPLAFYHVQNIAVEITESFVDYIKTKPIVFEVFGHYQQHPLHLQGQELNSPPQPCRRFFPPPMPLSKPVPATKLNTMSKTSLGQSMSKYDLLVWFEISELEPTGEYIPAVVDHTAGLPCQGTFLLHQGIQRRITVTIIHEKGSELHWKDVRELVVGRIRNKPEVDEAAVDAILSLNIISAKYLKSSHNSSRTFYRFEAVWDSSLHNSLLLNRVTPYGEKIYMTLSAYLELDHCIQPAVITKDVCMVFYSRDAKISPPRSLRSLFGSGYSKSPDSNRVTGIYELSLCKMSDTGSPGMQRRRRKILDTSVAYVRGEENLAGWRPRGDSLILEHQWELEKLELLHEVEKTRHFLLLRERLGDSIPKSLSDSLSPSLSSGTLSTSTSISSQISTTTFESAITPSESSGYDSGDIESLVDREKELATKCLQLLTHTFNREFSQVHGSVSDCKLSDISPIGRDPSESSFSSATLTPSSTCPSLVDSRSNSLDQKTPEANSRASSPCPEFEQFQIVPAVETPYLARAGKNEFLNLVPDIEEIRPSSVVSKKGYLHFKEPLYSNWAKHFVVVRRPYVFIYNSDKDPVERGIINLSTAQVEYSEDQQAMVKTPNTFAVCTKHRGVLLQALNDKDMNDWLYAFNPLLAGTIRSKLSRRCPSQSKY
UniProt Q96EK9: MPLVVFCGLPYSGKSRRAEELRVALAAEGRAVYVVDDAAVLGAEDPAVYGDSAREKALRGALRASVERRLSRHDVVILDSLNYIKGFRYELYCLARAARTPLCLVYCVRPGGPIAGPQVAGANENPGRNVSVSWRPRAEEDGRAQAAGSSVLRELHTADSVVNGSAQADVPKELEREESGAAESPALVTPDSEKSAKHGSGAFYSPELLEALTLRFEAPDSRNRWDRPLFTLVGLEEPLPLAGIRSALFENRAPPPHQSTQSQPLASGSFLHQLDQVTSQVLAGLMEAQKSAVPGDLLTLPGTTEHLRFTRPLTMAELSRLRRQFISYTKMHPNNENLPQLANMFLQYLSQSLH
UniProt Q06136: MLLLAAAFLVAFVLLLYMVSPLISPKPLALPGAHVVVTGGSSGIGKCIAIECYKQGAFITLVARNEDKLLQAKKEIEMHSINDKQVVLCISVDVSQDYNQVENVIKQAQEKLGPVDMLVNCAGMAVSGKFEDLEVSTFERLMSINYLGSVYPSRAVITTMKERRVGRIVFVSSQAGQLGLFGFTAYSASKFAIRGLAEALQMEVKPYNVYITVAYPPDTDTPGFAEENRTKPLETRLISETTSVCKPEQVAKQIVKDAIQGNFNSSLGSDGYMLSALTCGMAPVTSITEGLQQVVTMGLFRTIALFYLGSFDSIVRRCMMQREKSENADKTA
UniProt O43813, whole entry, looked up: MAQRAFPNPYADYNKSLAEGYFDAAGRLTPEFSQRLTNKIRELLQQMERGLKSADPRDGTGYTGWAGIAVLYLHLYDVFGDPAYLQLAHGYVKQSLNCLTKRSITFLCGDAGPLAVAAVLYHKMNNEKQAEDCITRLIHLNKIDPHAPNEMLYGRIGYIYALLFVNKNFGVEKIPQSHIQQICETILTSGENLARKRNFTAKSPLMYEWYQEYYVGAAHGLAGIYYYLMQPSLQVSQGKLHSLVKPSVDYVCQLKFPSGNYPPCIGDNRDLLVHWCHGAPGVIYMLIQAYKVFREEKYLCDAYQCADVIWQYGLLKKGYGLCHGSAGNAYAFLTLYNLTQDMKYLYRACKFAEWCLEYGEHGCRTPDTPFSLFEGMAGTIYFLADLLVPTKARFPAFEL
UniProt Q4G0J3: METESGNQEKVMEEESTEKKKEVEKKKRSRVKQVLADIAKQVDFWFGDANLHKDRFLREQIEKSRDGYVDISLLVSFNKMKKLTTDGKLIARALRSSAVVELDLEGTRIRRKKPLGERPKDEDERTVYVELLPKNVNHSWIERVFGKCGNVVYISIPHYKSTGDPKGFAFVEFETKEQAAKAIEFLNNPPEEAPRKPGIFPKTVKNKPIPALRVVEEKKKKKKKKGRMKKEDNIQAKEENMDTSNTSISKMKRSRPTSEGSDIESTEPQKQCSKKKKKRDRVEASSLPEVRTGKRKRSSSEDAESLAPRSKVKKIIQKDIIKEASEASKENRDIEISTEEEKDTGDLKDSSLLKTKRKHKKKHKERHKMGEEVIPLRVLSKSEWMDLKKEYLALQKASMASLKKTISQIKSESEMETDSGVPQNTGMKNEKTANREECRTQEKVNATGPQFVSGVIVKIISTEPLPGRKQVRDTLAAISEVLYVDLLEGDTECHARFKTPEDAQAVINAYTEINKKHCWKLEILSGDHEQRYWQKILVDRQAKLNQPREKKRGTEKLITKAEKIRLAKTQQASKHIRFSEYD
UniProt Q14145, whole entry, looked up: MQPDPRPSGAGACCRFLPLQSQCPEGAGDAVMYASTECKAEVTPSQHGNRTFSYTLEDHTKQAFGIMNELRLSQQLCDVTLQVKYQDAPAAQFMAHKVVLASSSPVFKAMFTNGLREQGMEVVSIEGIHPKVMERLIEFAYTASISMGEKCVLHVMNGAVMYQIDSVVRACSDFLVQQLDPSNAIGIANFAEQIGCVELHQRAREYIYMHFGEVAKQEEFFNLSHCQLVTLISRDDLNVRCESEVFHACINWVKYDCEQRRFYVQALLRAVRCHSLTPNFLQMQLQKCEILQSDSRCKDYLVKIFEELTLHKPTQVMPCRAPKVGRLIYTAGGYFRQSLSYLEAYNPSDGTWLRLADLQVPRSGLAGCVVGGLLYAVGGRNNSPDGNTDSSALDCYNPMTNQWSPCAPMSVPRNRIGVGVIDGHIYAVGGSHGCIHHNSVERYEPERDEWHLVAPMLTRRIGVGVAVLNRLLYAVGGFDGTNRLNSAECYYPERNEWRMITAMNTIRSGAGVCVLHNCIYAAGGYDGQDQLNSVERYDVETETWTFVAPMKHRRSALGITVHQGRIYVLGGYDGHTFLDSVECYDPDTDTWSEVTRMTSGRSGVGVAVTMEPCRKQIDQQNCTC
UniProt O00139: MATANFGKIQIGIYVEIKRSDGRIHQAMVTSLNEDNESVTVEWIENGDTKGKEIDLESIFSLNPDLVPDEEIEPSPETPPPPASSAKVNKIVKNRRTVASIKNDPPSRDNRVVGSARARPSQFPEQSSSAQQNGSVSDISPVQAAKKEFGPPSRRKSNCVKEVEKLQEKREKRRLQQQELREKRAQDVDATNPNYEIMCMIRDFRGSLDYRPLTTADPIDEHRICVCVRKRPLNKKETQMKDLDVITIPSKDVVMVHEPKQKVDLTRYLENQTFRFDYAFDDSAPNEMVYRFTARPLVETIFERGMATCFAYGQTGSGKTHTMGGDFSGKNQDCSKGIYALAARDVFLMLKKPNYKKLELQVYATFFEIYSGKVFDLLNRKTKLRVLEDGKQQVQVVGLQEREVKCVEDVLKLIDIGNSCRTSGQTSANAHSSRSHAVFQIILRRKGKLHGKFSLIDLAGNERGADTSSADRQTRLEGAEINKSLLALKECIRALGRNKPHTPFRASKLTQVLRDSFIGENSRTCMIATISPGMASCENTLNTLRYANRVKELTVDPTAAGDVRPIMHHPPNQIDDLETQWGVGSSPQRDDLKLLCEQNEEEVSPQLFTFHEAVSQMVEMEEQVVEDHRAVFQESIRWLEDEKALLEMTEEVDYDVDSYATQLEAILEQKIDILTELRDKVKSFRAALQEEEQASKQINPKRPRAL
UniProt P83111: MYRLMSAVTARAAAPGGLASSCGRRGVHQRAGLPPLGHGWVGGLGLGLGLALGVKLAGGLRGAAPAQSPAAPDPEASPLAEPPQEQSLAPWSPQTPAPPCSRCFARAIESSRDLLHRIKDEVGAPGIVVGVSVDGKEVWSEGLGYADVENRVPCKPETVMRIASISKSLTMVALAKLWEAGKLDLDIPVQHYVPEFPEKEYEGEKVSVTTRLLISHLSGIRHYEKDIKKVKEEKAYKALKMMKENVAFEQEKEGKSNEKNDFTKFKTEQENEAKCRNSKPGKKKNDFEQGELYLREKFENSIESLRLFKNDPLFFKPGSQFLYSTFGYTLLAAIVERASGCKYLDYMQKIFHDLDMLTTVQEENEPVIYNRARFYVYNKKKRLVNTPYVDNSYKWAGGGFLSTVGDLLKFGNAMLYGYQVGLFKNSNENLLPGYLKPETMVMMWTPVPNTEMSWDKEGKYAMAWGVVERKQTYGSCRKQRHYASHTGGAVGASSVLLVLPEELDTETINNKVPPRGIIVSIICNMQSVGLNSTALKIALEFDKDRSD
UniProt Q9BQD3: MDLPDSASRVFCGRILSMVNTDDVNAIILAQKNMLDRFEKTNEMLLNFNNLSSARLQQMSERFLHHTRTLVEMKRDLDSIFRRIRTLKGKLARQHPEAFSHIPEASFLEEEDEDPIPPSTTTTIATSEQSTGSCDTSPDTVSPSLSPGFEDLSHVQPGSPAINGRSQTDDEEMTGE
UniProt Q16773: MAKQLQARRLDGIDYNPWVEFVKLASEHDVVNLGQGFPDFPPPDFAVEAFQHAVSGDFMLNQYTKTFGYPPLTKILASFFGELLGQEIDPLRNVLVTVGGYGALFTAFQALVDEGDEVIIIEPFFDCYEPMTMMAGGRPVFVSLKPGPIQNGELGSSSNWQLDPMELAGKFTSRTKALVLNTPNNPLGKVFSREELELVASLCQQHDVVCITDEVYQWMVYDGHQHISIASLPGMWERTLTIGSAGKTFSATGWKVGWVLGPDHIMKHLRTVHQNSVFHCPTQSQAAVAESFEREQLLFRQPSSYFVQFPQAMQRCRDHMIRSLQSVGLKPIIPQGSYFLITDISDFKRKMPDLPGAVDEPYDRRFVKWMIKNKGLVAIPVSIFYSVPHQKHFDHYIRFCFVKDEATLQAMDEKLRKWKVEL

log2 fold change, inactive:
KLHDC4 (UniProt Q8TBB5) -0.013
KIF5B (UniProt P33176) 0.019
KIAA2013 (UniProt Q8IYS2) 0
KIF1B isoform 2 (UniProt O60333) -0.012
KTI12 (UniProt Q96EK9) -0.008
KDSR (UniProt Q06136) -0.022
KIF2C (UniProt Q99661) 0.002
LANCL1 (UniProt O43813) -0.024
KPTN (UniProt Q9Y664) -0.092
LARP7 isoform 3 (UniProt Q4G0J3) 0.003
KDM8 isoform 3 (UniProt Q8N371) -0.042
KEAP1 (UniProt Q14145) 0.015
KLC2 (UniProt Q9H0B6) 0.004
KPNB1 (UniProt Q14974) -0.007
KSR1 (UniProt Q8IVT5) 0.059
KPNA2 (UniProt P52292) -0.003
KLHDC3 (UniProt Q9BQ90) -0.034
KYAT3 (UniProt Q6YP21) -0.009
LARP4 isoform 4 (UniProt Q71RC2) 0.025
KIF5A (UniProt Q12840) 0.037
KIAA1191 (UniProt Q96A73) 0.078
KIF2A isoform 4 (UniProt O00139) 0.001
KIAA1324L (UniProt A8MWY0) -0.014
KLHL18 (UniProt O94889) 0.042
KIF15 (UniProt Q9NS87) 0.048
KRR1 (UniProt Q13601) -0.01
LACTB (UniProt P83111) 0.059
KXD1 (UniProt Q9BQD3) 0.057
KMT2D isoform 3 (UniProt O14686) -0.001
KYAT1 (UniProt Q16773) 0.01
KIN (UniProt O60870) -0.039
LAMTOR4 (UniProt Q0VGL1) 0.039

2 entries picked at random from those above, as already listed:
log2 fold change, inactive:
KIF2A isoform 4 (UniProt O00139) 0.001
KRR1 (UniProt Q13601) -0.01
